According to PubChem BioAssay AID540276 (National Center for Advancing Translational Sciences (NCATS), 2011):
The campaign covered roughly 300,000 compounds. About 5,400 (1.8%) were called active. The shares of active, inactive and inconclusive entries below differ from those in the screen. Calls come from the whole dose curve; tested in HEK293 cells. Where the call is inconclusive, the potency comes from a doubtful curve fit.

Experiment: qHTS for inhibitors of binding or entry into cells for Marburg Virus
Conditions: Marburg virus pseudotyped entry inhibition, cell reporter; activity change, negative = inhibition: at 37.8 µM (top of the series) unless noted
% is set by controls: 0 for no effect and ±100 for the full control effect; potency is the fitted concentration of half-maximal effect.

Structure (SMILES) | Potency | activity change, negative = inhibition
O=C(NCCCN1CCCCC1)C1CCCN(c2ncnc3c2nc2n3CCCCC2)C1 (stereo not drawn) | inconclusive: 35.5 µM [inhibitor, single point] | –
CCCCNC(=O)NS(=O)(=O)c1ccc(NS(=O)(=O)c2ccccc2)cc1 | inconclusive: 8.2 µM [activator, partial curve, poor fit] | –
CCOC(=O)Nc1ccc2c(c1)N(C(=O)CCN1CCOCC1)c1ccccc1S2=O (stereo not drawn) | inconclusive: 18.3 µM [inhibitor, single point] | –
COc1ccc(CCN(Cc2cc3cc(C)cc(C)c3nc2Cl)C(=O)C2CC2)cc1 | inconclusive: 20.6 µM [inhibitor, single point] | –
CC(C)c1cccc(C(C)C)c1NC(=O)COC(=O)[C@H](C)NC(N)=O | inconclusive: 15.8 µM [activator, single point] | –
O=C(CCCN1C(=O)C2CCCCN2C1=O)N1CCN(c2ccc([N+](=O)[O-])cc2)CC1 (stereo not drawn) | inconclusive: 8.91 µM [inhibitor, partial curve, poor fit] | –
CC1=NN(Cc2ccccc2)C(=O)C1C(c1ccccc1)C(C#N)C#N (stereo not drawn) | inconclusive: 0.058 µM [inhibitor, partial curve, poor fit] | –
CC(C)(CN1CCOCC1)NS(=O)(=O)c1ccccc1 | – | inactive: -1.03%
Cc1cccc(N)c1S[C@@H]1CCCC[C@H]1O | inconclusive: 6.31 µM [inhibitor, single point] | –
Cc1cccc(NC(=S)NNC(=O)c2nn(C)cc2Cl)c1 | inconclusive: 31.6 µM [activator, single point] | –
Cc1cc(=O)n2[nH]c(-c3ccccc3Cl)cc2n1 | inconclusive: 7.08 µM [activator, partial curve, poor fit] | –
O=C(CSc1ncn[nH]1)CSc1ncn[nH]1 | – | inactive: 1.83% [at 46.1 µM]
O=C(CSc1ccc([N+](=O)[O-])cn1)Nc1ccc2c(c1)OCO2 | – | inactive: 0.139% [at 46.1 µM]
COc1cccc(-c2nnc(NC(=O)CCS(=O)(=O)c3ccc(C)cc3)o2)c1 | inconclusive: 3.16 µM [inhibitor, single point] | –
O=C(/C=C/c1ccccc1)Nc1ncn[nH]1 | inconclusive: 9.2 µM [inhibitor, single point] | –
COc1cc(/C=N/Nc2ccc3ccccc3c2)ccc1OC(=O)c1ccco1 | inconclusive: 1.41 µM [activator, partial curve, poor fit] | –
COc1ccc(-c2nsc(NC(=O)c3ccccc3Br)n2)cc1 | inconclusive: 3.16 µM [activator, partial curve, poor fit] | –
COC(=O)C1=C(C)N(CC2CC2)C(=O)N[C@H]1c1ccc(Br)cc1 | inconclusive: 2.99 µM [activator, partial curve, poor fit] | –

Quoted from the listing:
Potency with Cc1cccc(N)c1S[C@@H]1CCCC[C@H]1O reads inconclusive: 6.31 µM [inhibitor, single point]
Potency with O=C(CCCN1C(=O)C2CCCCN2C1=O)N1CCN(c2ccc([N+](=O)[O-])cc2)CC1 (stereo not drawn) reads inconclusive: 8.91 µM [inhibitor, partial curve, poor fit]
